Experimental data as given in the supplement of paper PMC4683952.
Counter-ions that a name gives are not always drawn. The whole screen tested about 1,200 compounds, of which about 50 (4%) showed activity. Cut-off read from the data, not from the text of the source: all actives reach 1.3 or more but so do some inactives. The list shows a part of the results.

Test system: Lgr5 (MarsCy1-Lgr5-EGFP, U2OS)
Test: cell-surface Lgr5 expression (SCi1 fluorescence, background-subtracted) relative to WT DMSO (fold of DMSO control); higher = more Lgr5 at the plasma membrane, active = hit call of the paper
Conditions: U2OS MarsCy1-Lgr5-EGFP stable; treatment time: overnight; 16 µM; library: Johns Hopkins Clinical Compound Library

Row | SMILES | cell-surface Lgr5 expression
1 | CC(=O)/N=c1/sc(S(N)(=O)=O)nn1C [Methazolamide] | inactive: 1.1
2 | N=C(N)N1CCc2ccccc2C1 [Debrisoquin sulfate] | inactive: 1.35
3 | CN(C)CCOc1ccccc1Cc1ccccc1 [Phenyltoloxamine] | inactive: 1.18
4 | c1ccc2c(c1)[nH]c1ccccc12 [Carbazole] | inactive: 0.919
5 | O=C(O)Cc1cc(I)c(Oc2ccc(O)c(I)c2)c(I)c1 [Tiratricol (3,3',5-triiodothyroacetic acid)] | inactive: 1.29
6 | CNCC[C@@H](Oc1ccccc1C)c1ccccc1 [Atomoxetine] | inactive: 0.723
7 | CO[C@H]1C=CO[C@@]2(C)Oc3c(C)c(O)c4c(O)c(c(C=O)c(O)c4c3C2=O)NC(=O)C(C)=CC=C[C@H](C)[C@H](O)[C@@H](C)[C@@H](O)[C@@H](C)[C@H](OC(C)=O)[C@@H]1C [3-formyl Rifamycin] | inactive: 1.12
8 | Cl.Cl.NCCN [Ethylenediamine dihydrochloride] | inactive: 1.05
9 | C=CCOc1ccccc1OCC(O)CNC(C)C (centres undefined) [Oxprenolol] | active: 1.42
10 | O=C(O)c1ccc[n+]([O-])c1 [Oxiniacic acid (nicotinic acid n-oxide)] | inactive: 0.989
11 | Cc1cc(C(C)(C)C)cc(C)c1CC1=NCCN1 [Xylometazoline] | inactive: 1.26
12 | CC(C)(CO)[C@@H](O)C(=O)NCCC(=O)O [D-Pantothenic acid calcium salt] | inactive: 1.2
13 | C[C@@H]1C[C@H]2[C@@H]3CCC4=CC(=O)C=C[C@]4(C)[C@@]3(F)[C@@H](O)C[C@]2(C)[C@H]1C(=O)CO | inactive: 1.41
14 | COc1cc2nc(N3CCN(C(=O)C4COc5ccccc5O4)CC3)nc(N)c2cc1OC (centres undefined) [Doxazosin mesylate salt] | inactive: 0.689
15 | CC#C[C@]1(O)CC[C@H]2[C@@H]3CCC4=CC(=O)CCC4=C3[C@@H](c3ccc(N(C)C)cc3)C[C@@]21C [Mifepristone] | inactive: 0.55
16 | C[C@@H]1C/C=C/C=C/C=C/C=C/[C@H](O[C@@H]2O[C@H](C)[C@@H](O)[C@H](N)[C@@H]2O)C[C@@H]2O[C@](O)(C[C@@H](O)C[C@H]3O[C@@H]3/C=C/C(=O)O1)C[C@H](O)[C@H]2C(=O)O [Natamycin (Pimaricin)] | inactive: 0.845
17 | CC(C)[C@H](N)C(=O)OCCOCn1cnc2c(=O)nc(N)[nH]c21 [Valacyclovir] | inactive: 0.742
18 | CN1CCN2c3ncccc3Cc3ccccc3C2C1 (centres undefined) [Mirtazapine] | inactive: 0.867
19 | COC(=O)N/N=C/c1c[n+]([O-])c2ccccc2[n+]1[O-] [Carbadox] | inactive: 1.02
20 | COc1cc(CNC(=O)CCCC/C=C/C(C)C)ccc1O [Capsaicin] | inactive: 0.962
21 | C=C1O[C@@](CO)(n2cnc3c(N)ncnc32)[C@H](O)[C@@H]1O [Decoyinine] | inactive: 1.19
22 | COC(=O)[C@H](Cc1ccccc1)NC(=O)[C@@H](N)CC(=O)O [Aspartame] | inactive: 0.834

Row | SMILES | cell-surface Lgr5 expression
23 | CCCCOc1cc(C(=O)OCCN(CC)CC)ccc1N [Benoxinate] | inactive: 0.987
24 | CC(=O)Nc1nnc(S(N)(=O)=O)s1 [Acetazolamide] | inactive: 0.969
25 | O=C(O)C1=C(CSc2nnnn2CS(=O)(=O)O)CS[C@@H]2[C@H](NC(=O)[C@H](O)c3ccccc3)C(=O)N12 [Cefonicid sodium] | inactive: 0.936
26 | [Mg+2].[O-][O-] [Magnesium peroxide] | inactive: 1.12
27 | NC[C@H](O)c1ccc(O)c(O)c1 [Arterenol (Norepinephrine)] | active: 1.3
28 | NC[C@H](O)c1ccc(O)c(O)c1 [Norepinephrine] | inactive: 1.26
29 | CCN(CC)CCNC(=O)c1ccc(N)cc1 [Procainamide HCL] | inactive: 0.981
30 | C[C@@H]1CCC[C@H](C)N1NC(=O)c1ccc(Cl)c(S(N)(=O)=O)c1 [Clopamide] | inactive: 1.3
31 | CC[C@H]1OC(=O)[C@H](C)[C@@H](O[C@H]2C[C@@](C)(OC)[C@@H](O)[C@H](C)O2)[C@H](C)[C@@H](O[C@@H]2O[C@H](C)C[C@H](N(C)C)[C@H]2O)[C@](C)(O)C[C@@H](C)CN(C)[C@H](C)[C@@H](O)[C@]1(C)O [Azithromycin dihydrate] | inactive: 0.522
32 | CN[C@H]1CC[C@@H](c2ccc(Cl)c(Cl)c2)c2ccccc21 [Sertraline hydrochloride] | inactive: 0.149
33 | O=S(=O)([O-])[O-].[Fe+2] [Ferrous sulfate] | inactive: 0.888
34 | O=C(O)c1ccccc1I [2-Iodobenzoic acid] | inactive: 1.04
35 | Nc1ccc(S(=O)(=O)Nc2nccs2)cc1 [Sulfathiazole] | inactive: 1.03
36 | CC(C)NCC(O)COc1ccc(CC(N)=O)cc1 (centres undefined) [Atenolol] | inactive: 1.03
37 | CCCCCCCCCCCCCCCC[N+](C)(C)Cc1ccccc1 | inactive: 1.49
38 | CN(CCCCCCCCCCN(C)C(=O)Oc1cccc([N+](C)(C)C)c1)C(=O)Oc1cccc([N+](C)(C)C)c1 [Demecarium bromide] | inactive: 0.912
39 | CCCCCCCC(=O)OCC(COC(=O)CCCCCCC)OC(=O)CCCCCCC [Tricaprilin (Glyceryl trioctanoate)] | inactive: 0.971
40 | O[C@@H]([C@H](O)[C@H](O)CBr)[C@H](O)CBr [Mitobronitol (1,6-Dibromo-1,6-dideoxy-D-mannitol)] | inactive: 1.13
41 | CC1OC2(CS1)CN1CCC2CC1 (centres undefined) [Cevimeline hydrochloride] | inactive: 0.73
42 | CC1OC2(CS1)CN1CCC2CC1 (centres undefined) [Cevimeline] | inactive: 1.16
43 | CCCCCCCCCCCCCCCC(=O)Oc1ccc(/C(CC)=C(\CC)c2ccc(OC(=O)CCCCCCCCCCCCCCC)cc2)cc1 [Diethylstilbestrol dipalmitate] | inactive: 1.26
44 | C[C@H]1C[C@H]2[C@@H]3CCC4=CC(=O)C=C[C@]4(C)[C@@]3(F)[C@@H](O)C[C@]2(C)[C@@]1(O)C(=O)COP(=O)(O)O [Betamethasone sodium phosphate] | active: 1.35

Reformatted: results already given

| Row | SMILES | cell-surface Lgr5 expression |
| --- | --- | --- |
| 23 | CCCCOc1cc(C(=O)OCCN(CC)CC)ccc1N [Benoxinate] | inactive: 0.987 |
| 25 | O=C(O)C1=C(CSc2nnnn2CS(=O)(=O)O)CS[C@@H]2[C@H](NC(=O)[C@H](O)c3ccccc3)C(=O)N12 [Cefonicid sodium] | inactive: 0.936 |
| 28 | NC[C@H](O)c1ccc(O)c(O)c1 [Norepinephrine] | inactive: 1.26 |
| 29 | CCN(CC)CCNC(=O)c1ccc(N)cc1 [Procainamide HCL] | inactive: 0.981 |
| 30 | C[C@@H]1CCC[C@H](C)N1NC(=O)c1ccc(Cl)c(S(N)(=O)=O)c1 [Clopamide] | inactive: 1.3 |
| 31 | CC[C@H]1OC(=O)[C@H](C)[C@@H](O[C@H]2C[C@@](C)(OC)[C@@H](O)[C@H](C)O2)[C@H](C)[C@@H](O[C@@H]2O[C@H](C)C[C@H](N(C)C)[C@H]2O)[C@](C)(O)C[C@@H](C)CN(C)[C@H](C)[C@@H](O)[C@]1(C)O [Azithromycin dihydrate] | inactive: 0.522 |
| 32 | CN[C@H]1CC[C@@H](c2ccc(Cl)c(Cl)c2)c2ccccc21 [Sertraline hydrochloride] | inactive: 0.149 |
| 33 | O=S(=O)([O-])[O-].[Fe+2] [Ferrous sulfate] | inactive: 0.888 |
| 36 | CC(C)NCC(O)COc1ccc(CC(N)=O)cc1 (centres undefined) [Atenolol] | inactive: 1.03 |
| 37 | CCCCCCCCCCCCCCCC[N+](C)(C)Cc1ccccc1 | inactive: 1.49 |
| 38 | CN(CCCCCCCCCCN(C)C(=O)Oc1cccc([N+](C)(C)C)c1)C(=O)Oc1cccc([N+](C)(C)C)c1 [Demecarium bromide] | inactive: 0.912 |
| 39 | CCCCCCCC(=O)OCC(COC(=O)CCCCCCC)OC(=O)CCCCCCC [Tricaprilin (Glyceryl trioctanoate)] | inactive: 0.971 |
| 40 | O[C@@H]([C@H](O)[C@H](O)CBr)[C@H](O)CBr [Mitobronitol (1,6-Dibromo-1,6-dideoxy-D-mannitol)] | inactive: 1.13 |
| 42 | CC1OC2(CS1)CN1CCC2CC1 (centres undefined) [Cevimeline] | inactive: 1.16 |
| 43 | CCCCCCCCCCCCCCCC(=O)Oc1ccc(/C(CC)=C(\CC)c2ccc(OC(=O)CCCCCCCCCCCCCCC)cc2)cc1 [Diethylstilbestrol dipalmitate] | inactive: 1.26 |

Additional entries follow.

Row | SMILES | cell-surface Lgr5 expression
45 | CCCCC(CC)COC(=O)CC(C(=O)OCC(CC)CCCC)S(=O)(=O)O (centres undefined) [Docusate sodium (Dioctyl Sulfosuccinate, sodium salt)] | inactive: 1.23
46 | CCCCCCCCCC(=O)N[C@@H](Cc1c[nH]c2ccccc12)C(=O)N[C@H](CC(N)=O)C(=O)N[C@@H](CC(=O)O)C(=O)N[C@@H]1C(=O)NCC(=O)N[C@@H](CCCN)C(=O)N[C@@H](CC(=O)O)C(=O)N[C@H](C)C(=O)N[C@@H](CC(=O)O)C(=O)NCC(=O)N[C@H](CO)C(=O)N[C@@H]([C@H](C)CC(=O)O)C(=O)N[C@@H](CC(=O)c2ccccc2N)C(=O)O[C@@H]1C [Daptomycin] | inactive: 0.72
47 | N=C(N)NCCC[C@H](NC(=O)[C@@H]1CCCN1C(=O)[C@@H]1CSSC[C@H](N)C(=O)N[C@@H](Cc2ccc(O)cc2)C(=O)N[C@@H](Cc2ccccc2)C(=O)N[C@@H](CCC(N)=O)C(=O)N[C@@H](CC(N)=O)C(=O)N1)C(=O)NCC(N)=O [Vasopressin] | inactive: 0.743
48 | CC(=O)OC[C@H]1O[C@@H]([S-])[C@H](OC(C)=O)[C@@H](OC(C)=O)[C@@H]1OC(C)=O.CCP(CC)CC.[Au+] [Auranofin] | inactive: 0.614
49 | NC(=O)NC(NC(N)=O)C(=O)O [Allantoic acid] | inactive: 0.921
50 | [O-2].[Zn+2] [Zinc oxide] | inactive: 0.734
51 | CCC1(c2ccccc2)C(=O)NCNC1=O [Primidone] | inactive: 0.503
52 | N#Cc1ccc2c(c1)N(CCCN1CCC(O)CC1)c1ccccc1S2 [Periciazine (propericiazine)] | inactive: 0.978
53 | Oc1c(Cl)cc(Cl)c2cccnc12 [Chloroxine (5,7-Dichloro-8-hydroxyquinoline)] | inactive: 0.97
54 | c1ccc(-c2ccc(C(c3ccccc3)n3ccnc3)cc2)cc1 (centres undefined) [Bifonazole] | inactive: 1.04
55 | CCN(CC)C(=S)S [Ditiocarb (Diethyldithiocarbamic acid sodium, thiocarb)] | inactive: 1.05
56 | C[C@H]1[C@H](C)CC[C@]2(C(=O)O)CC[C@]3(C)C(=CC[C@@H]4[C@@]5(C)CC[C@H](O)C(C)(C)[C@@H]5CC[C@]43C)[C@H]12 [Ursolic acid] | inactive: 0.799
57 | O=C(c1ccc(F)cc1)C1CCN(CCn2c(=O)[nH]c3ccccc3c2=O)CC1 [Ketanserin] | inactive: 1.15
58 | CCN(CC)C(=O)c1ccc(O)c(OC)c1 [Ethamivan (Vanillic acid diethylamide)] | inactive: 1
59 | Cc1cc2nc3c(=O)[nH]c(=O)nc-3n(C[C@H](O)[C@H](O)[C@H](O)CO)c2cc1C [Riboflavin] | inactive: 0.694
60 | CCCOc1ccc2[nH]c(NC(=O)OC)nc2c1 [Oxibendazole] | inactive: 1.15
61 | CN(C)CCOC(c1ccccc1)c1ccccc1.Cn1c(=O)c2[nH]c(Cl)nc2n(C)c1=O [Dimenhydrinate] | inactive: 0.955
62 | O=C1NCC2(CCN(CCc3ccccc3)CC2)O1 [Fenspiride] | inactive: 1.08
63 | Clc1ccc2c(c1)CCc1cccnc1C2=C1CCNCC1 [Desloratadine] | inactive: 0.874
64 | CC(=O)O[C@]1(C(C)=O)CC[C@H]2[C@@H]3C=C(Cl)C4=CC(=O)CC[C@]4(C)[C@H]3CC[C@@]21C [Chlormadinone acetate] | inactive: 1.09
